# In PubChem BioAssay AID485353 (National Center for Advancing Translational Sciences (NCATS), 2010):
# Hit rate of the full screen: of about 330,000 compounds, about 610 (0.18%) were called active. Inconclusive means that the source gave no clear call. Such entries were picked first, then a sample of the others. Calls follow the shape of the full dose curve. Where the call is inconclusive, the potency comes from a doubtful curve fit.
# Assay: qHTS of Yeast-based Assay for SARS-CoV PLP; also: nearly all actives have a fitted effect of over 55% in size
# Conditions: S. cerevisiae expressing SARS-CoV PLpro; Potency: growth rescue; series mostly up to 32.9 µM
# Potency is read from the fitted curve at half-maximal effect.
row,Structure (SMILES),Potency
1,O=C(CN1C(=O)COc2ccccc21)NCCCN1CCN(Cc2ccccc2)CC1,"inconclusive: 4.47 µM [activator, single point]"
2,CC(=O)OCC(=O)Nc1ccc(Cl)cc1Cl,"inconclusive: 20 µM [activator, single point]"
3,Cc1ccc(/C=N/n2c(C3CCCCC3)n[nH]c2=S)o1,"inconclusive: 22.4 µM [activator, partial curve]"
4,Cc1ccc(CN2CCSc3sccc3C2=O)cc1,inactive
5,O=C(CCc1nnc(Cc2cccc(C(F)(F)F)c2)o1)NCCc1ccccc1F,"inconclusive: 3.16 µM [activator, single point]"
6,O=C(NC1CCCC1)c1ccc(CS(=O)(=O)Cc2ccccc2Cl)o1,"inconclusive: 2.82 µM [activator, full curve]"
7,Cc1cccc(Oc2ccccc2NS(=O)(=O)c2ccc(CCC(=O)O)cc2)c1,active: 2.24 µM
8,Cc1c(N/N=C(\C#N)C(=O)c2ccc(Cl)cc2)c(=O)n(-c2ccccc2)n1C,active: 12.6 µM
9,COc1ccccc1NC(=O)Nc1ccc(F)c(F)c1,inactive
10,S=C(c1cn(Cc2ccc(Br)cc2)c2ccccc12)N1CCOCC1,"inconclusive: 11.2 µM [activator, single point]"
11,CC1Cc2cc(S(=O)(=O)CCC(=O)NC3CCCCC3)ccc2N1C(=O)C1CC1 (configuration not stated),inactive
12,COc1ccccc1-n1c(CNC(=O)c2ccco2)n[nH]c1=S,"inconclusive: 20 µM [activator, single point]"
13,COc1ccc2cc3cc(C(=O)NCCc4ccc(OC)c(OC)c4)oc3nc2c1,inactive
14,O=C1OC[C@H]2CCCN2C(=O)[C@@H](CC(=O)N(CCO)Cc2ccccc2)C/C=C\C[C@H]1Cc1ccc(F)cc1,inactive
15,NC(=S)N/N=C/c1ccc(C(F)(F)F)cc1,"inconclusive: 2.51 µM [activator, partial curve]"
16,O=c1ccn([C@@H]2O[C@H](CO)[C@@H](O)[C@H]2O)c(=O)[nH]1,"inconclusive: 11.2 µM [activator, single point]"
17,O=C(O)c1ccccc1-c1ccccc1C(=O)Nc1nc2ccccc2s1,inactive
18,Nc1cc(-c2ccccc2)ccc1O,"inconclusive: 20 µM [activator, single point]"
19,COc1ccc(Nc2ccc(C(F)(F)F)cc2[N+](=O)[O-])cn1,inactive
20,O=C(CSc1ccc2nnc(-c3ccccn3)n2n1)Nc1ccc(F)cc1,"inconclusive: 20 µM [activator, single point]"
21,O=C(Nc1ccc(N2CCN(Cc3ccccc3)CC2)cc1)c1ccco1,"inconclusive: 12.6 µM [activator, partial curve]"
22,Cc1ccnc(SCC(=O)N2CCc3ccccc32)n1,inactive
23,Cc1ccccc1NC(=O)CSc1nc(N)c2c3c(sc2n1)CSC(C)(C)C3,inactive
24,NC(=S)N/N=C/c1cccc(Br)c1,"inconclusive: 10 µM [activator, partial curve]"
25,O=c1cnnc(SCCc2ccccc2)[nH]1,inactive
26,Cc1ccc(C)c(NC(=S)N/N=C2/CCCCc3ccccc32)c1,"inconclusive: 2.82 µM [activator, single point]"

# A second format for 2 compounds above.
row | Structure (SMILES) | Potency
10 | S=C(c1cn(Cc2ccc(Br)cc2)c2ccccc12)N1CCOCC1 | inconclusive: 11.2 µM [activator, single point]
11 | CC1Cc2cc(S(=O)(=O)CCC(=O)NC3CCCCC3)ccc2N1C(=O)C1CC1 (configuration not stated) | inactive

# (list continues)

row,Structure (SMILES),Potency
1,CC(=O)N1CC(C)Sc2ccc(S(=O)(=O)NC3CCCCC3C)cc21 (configuration not stated),inactive
2,CCc1cc2c(N=Nc3c(O)[nH]c4ccccc34)ncnc2s1,"inconclusive: 8.91 µM [activator, partial curve]"
3,O=C(CN1C(=O)C(=O)N(C2CCCC2)C1=O)Nc1ccc(N2CCOCC2)cc1,inactive
4,O=C(CSc1nc2ccccc2[nH]1)NC1CCCc2ccccc21 (configuration not stated),"inconclusive: 2.24 µM [activator, partial curve]"
5,Cc1cc(/C=N/NC(N)=S)c(C)n1-c1ccc(Cl)c(Cl)c1,"inconclusive: 17.8 µM [activator, single point]"
6,O=C(CSc1ccccc1)N1CCN(c2ccccc2)CC1,"inconclusive: 5.01 µM [activator, partial curve]"
7,COCCn1c(SCC(=O)NC2CCCC2)nc2c(c1=O)SCC2,"inconclusive: 4.47 µM [activator, partial curve]"
8,CCc1cccc(N=c2c([N+](=O)[O-])nn(-c3ccc(Cl)cc3)n2O)c1,"inconclusive: 20 µM [activator, single point]"
9,CCCCCC(=O)Nc1cccc(-c2nc3ncccc3o2)c1,inactive
10,CC1(C)CC(CC(=O)O)(c2ccc(Cl)cc2)CCO1 (configuration not stated),"inconclusive: 22.4 µM [activator, single point]"
11,COc1cc(NC(=O)c2cc(-n3cnnc3)ccc2Cl)cc(OC)c1,"inconclusive: 20 µM [activator, single point]"
12,Cc1cccc(C(=O)Nc2ccccc2C(=O)NCc2ccco2)c1,"inconclusive: 3.98 µM [activator, single point]"
13,COc1cc(C(=O)NCC2CCCN2S(=O)(=O)c2cccs2)cc(OC)c1OC (configuration not stated),inactive
14,O=C(COC(=O)CCCN1C(=O)c2ccccc2C1=O)Nc1cc(Cl)cc(Cl)c1,"inconclusive: 20 µM [activator, single point]"
15,Cc1cc(C=C2C(=O)CCCC2=O)c(C)n1-c1ccccc1,"inconclusive: 17.8 µM [activator, partial curve, poor fit]"
16,COC(=O)c1cc(OC)c(OC)cc1NCC(=O)Nc1ccc(C)cc1,active: 4.47 µM
17,CCCc1cc(C(=O)NNC(=S)NC2CCCCC2)cs1,"inconclusive: 3.98 µM [activator, single point]"
18,Cc1cc(C)cc(NC(=O)c2snc3c(=O)[nH]cnc23)c1,"inconclusive: 4.47 µM [activator, single point]"
19,CCCC(=O)Nc1ccc(C(=O)NNC(=O)c2ccco2)cc1,"inconclusive: 2.82 µM [activator, single point]"
20,COCCN(C(=O)COC(=O)c1cc(C)oc1C)c1c(N)n(Cc2ccccc2)c(=O)[nH]c1=O,inactive
21,Cc1ccc(C2CC(=O)c3cnc(N4CC(C)CC(C)C4)nc3C2)cc1 (configuration not stated),"inconclusive: 10 µM [activator, single point]"
22,Cc1[nH]n(-c2ccccc2)c(=O)c1C=NCc1ccco1,inactive
23,Cc1ccc(-n2c(C)cc(/C([O-])=C(/C(=S)Nc3ccc(F)c(Cl)c3)[n+]3ccccc3)c2C)cc1,inactive
24,O=C1CSc2ccc(S(=O)(=O)NCc3ccccc3)cc2N1,"inconclusive: 4.47 µM [activator, single point]"
25,CC(=O)N(c1cccc(C)c1)C1SC(=O)N(c2ccccc2)C1=O (configuration not stated),"inconclusive: 17.8 µM [activator, single point]"
26,CC1=C(C(=O)OC(C)C)C(c2ccc(O)cc2)NC(=O)N1 (configuration not stated),"inconclusive: 3.55 µM [activator, single point]"

# Pulled by compound from the entries so far (4):
row,Structure (SMILES),Potency
11,COc1cc(NC(=O)c2cc(-n3cnnc3)ccc2Cl)cc(OC)c1,"inconclusive: 20 µM [activator, single point]"
24,O=C1CSc2ccc(S(=O)(=O)NCc3ccccc3)cc2N1,"inconclusive: 4.47 µM [activator, single point]"
18,Cc1cc(C)cc(NC(=O)c2snc3c(=O)[nH]cnc23)c1,"inconclusive: 4.47 µM [activator, single point]"
1,CC(=O)N1CC(C)Sc2ccc(S(=O)(=O)NC3CCCCC3C)cc21 (configuration not stated),inactive

# (further entries)

row,Structure (SMILES),Potency
1,COc1ccc(Cc2nnc(N/N=C/c3ccc(O)cc3O)[nH]c2=O)cc1OC,active: 6.31 µM
2,O=C(CC1SC(N2CCCCC2)=NC1=O)Nc1cccc(C(=O)Nc2ncccc2O)c1 (configuration not stated),"inconclusive: 4.47 µM [activator, single point]"
3,Cc1ccc(C)c(CN2CCNC2=O)c1,"inconclusive: 11.2 µM [activator, single point]"
4,Cc1csc2ncc(C(=O)Nc3ccccc3Cl)c(=O)n12,inactive
5,Cc1ccc(C)c(Cn2c(CN(C)Cc3ccccc3)nc3c2c(=O)n(C)c(=O)n3C)c1,inactive
6,CCOP(=O)(OCC)C(NC(=O)c1ccccc1)C(Cl)(Cl)Cl (configuration not stated),inactive
7,Cc1csc(SCC(=O)NCc2ccccc2Cl)n1,inactive
8,CC(=O)Nc1ccc(S(=O)(=O)Nc2ccc(NC(=O)c3ccco3)cc2)cc1,inactive
9,Cc1ccccc1NC(=O)C(c1ccccc1)C1CCCC1 (configuration not stated),"inconclusive: 0.562 µM [activator, partial curve, poor fit]"
10,O=C(c1cc2cc(Cl)ccc2[nH]1)N1CCC2(CC1)OCCO2,"inconclusive: 3.55 µM [activator, partial curve]"
11,Cc1ccc(C)c(/C=C/C(=O)c2ccccc(=O)c2O)c1,active: 3.55 µM
12,Cc1ncc(CO)c(/C=N/NC(=O)c2cc(Br)ccc2O)c1O,"inconclusive: 1.12 µM [activator, full curve]"
13,COc1ccc(C(CC(=O)O)N2C(=O)CCC2=O)cc1 (configuration not stated),inactive
14,O=C(Cc1ccc(-c2ccccc2)cc1)NCCN1CCOCC1,"inconclusive: 10 µM [activator, partial curve]"
15,O=C(CSc1nc(O)cc(=O)n1-c1ccccc1)Nc1ccc2c3c(cccc13)CC2,"inconclusive: 10 µM [activator, partial curve, poor fit]"
16,Cc1onc(-c2ccccc2)c1C(=O)NC(=S)NNC(=O)c1ccncc1,active: 12.6 µM
17,CCOC(=O)c1c(COC(=O)c2ccco2)nc2ccccc2[n+]1[O-],inactive
18,Cc1cc(C(=O)NNC(=S)NC(=O)/C=C/c2ccccc2Cl)n[nH]1,active: 10 µM
19,Cc1ccc(C(=O)NCC(=O)OCC(=O)/C=C2\N(C)c3ccccc3C2(C)C)cc1C,inactive
20,Cc1ccc2nc(-c3cccnc3)oc2c1,inactive
21,CCCn1c(SCC(=O)Nc2c(C)cccc2CC)nnc1C(C)C,"inconclusive: 20 µM [activator, single point]"
22,COC(=O)c1cc(NC(=O)CC2C(=O)NCCN2C(=O)c2ccc(F)cc2)cc(C(=O)OC)c1 (configuration not stated),"inconclusive: 20 µM [activator, single point]"
23,Oc1ccc(/C=N/Nc2nccnc2Cl)c(O)c1,active: 3.16 µM
24,O=C(O)CCc1ccc(-c2cccs2)n1NC(=O)c1ccc(O)cc1,inactive
25,Cc1coc2c(C)c3oc(=O)c(CCC(=O)N4C[C@H]5C[C@@H](C4)c4cccc(=O)n4C5)c(C)c3cc12,inactive
